No constants are given. Whether binding was seen depends on the method and setting. Binding seen in cells or lysates may run through a third protein. Some results given as binding are weak or reduced against the parent protein; the word gives no strength.
Biological target: CCR7-LgBiT (human) (UniProt P32248)
Test: split reporter; NanoBiT in live HEK293 cells transiently co-transfected with CCR7-LgBiT and SmBiT-β-arrestin2; HBSS, 20 mM HEPES, 0.5% FBS, pH 7.4; stimulated with CCL19 or CCL21, luminescence followed for 40 min; also after pre-treatment with PTX (50 ng/mL) or CMPD101 (10 µM)

Protein sequences, listed by entry. Tags and fused reporters are not part of them. Residues count along the entry.
UniProt P32248, residues 25-378: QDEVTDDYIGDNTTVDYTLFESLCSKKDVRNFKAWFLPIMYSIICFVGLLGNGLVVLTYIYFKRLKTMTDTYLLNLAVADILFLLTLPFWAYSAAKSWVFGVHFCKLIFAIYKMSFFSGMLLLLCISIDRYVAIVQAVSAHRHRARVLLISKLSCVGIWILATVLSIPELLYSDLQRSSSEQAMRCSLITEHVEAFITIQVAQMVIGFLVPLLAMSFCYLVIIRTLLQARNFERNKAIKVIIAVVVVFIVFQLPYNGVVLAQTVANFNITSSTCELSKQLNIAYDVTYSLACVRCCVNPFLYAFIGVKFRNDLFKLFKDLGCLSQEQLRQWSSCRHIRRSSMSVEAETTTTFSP
UniProt P32121: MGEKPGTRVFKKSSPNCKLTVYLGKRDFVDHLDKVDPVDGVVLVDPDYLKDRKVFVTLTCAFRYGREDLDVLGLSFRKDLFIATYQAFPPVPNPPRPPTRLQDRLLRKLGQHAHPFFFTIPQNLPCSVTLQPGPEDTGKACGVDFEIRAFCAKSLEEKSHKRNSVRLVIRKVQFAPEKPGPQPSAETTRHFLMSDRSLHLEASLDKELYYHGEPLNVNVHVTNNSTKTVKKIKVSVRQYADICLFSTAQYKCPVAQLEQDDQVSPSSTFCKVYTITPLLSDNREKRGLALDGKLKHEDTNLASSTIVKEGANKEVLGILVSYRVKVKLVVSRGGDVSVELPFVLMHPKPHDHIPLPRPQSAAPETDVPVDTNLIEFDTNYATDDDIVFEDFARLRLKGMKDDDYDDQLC

binding: binds
Substance: SmBiT-β-arrestin2 (from UniProt P32121 1-409)
